Laboratory results reported in PubChem BioAssay (Tox21).
The shares of active, inactive and inconclusive entries below differ from those in the screen. For part of these data: A potency beside an inconclusive call is a rough fit, not a confirmed value. Calls of active or inactive are those of the source. Unless noted, calls come from the whole dose curve.

Sequences of proteins named here, by UniProt entry; tags and fusion partners are left off.
UniProt P14416, whole entry, looked up: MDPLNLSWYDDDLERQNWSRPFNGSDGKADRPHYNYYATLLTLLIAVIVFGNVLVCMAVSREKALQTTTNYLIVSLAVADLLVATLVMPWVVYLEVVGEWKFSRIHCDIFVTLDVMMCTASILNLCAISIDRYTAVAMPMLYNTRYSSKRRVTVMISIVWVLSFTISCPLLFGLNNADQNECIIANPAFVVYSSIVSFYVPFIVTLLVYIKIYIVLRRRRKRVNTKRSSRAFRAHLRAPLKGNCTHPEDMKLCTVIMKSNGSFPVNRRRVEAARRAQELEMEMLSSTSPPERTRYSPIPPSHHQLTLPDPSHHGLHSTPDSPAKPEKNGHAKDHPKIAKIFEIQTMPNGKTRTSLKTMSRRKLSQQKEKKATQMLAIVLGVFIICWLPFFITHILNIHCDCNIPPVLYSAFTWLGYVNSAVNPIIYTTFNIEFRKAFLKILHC

Biological target: Beta-2 adrenergic receptor (Homo sapiens) (UniProt P07550)
Test: Adrenergic beta2 receptor (ADRB2) small molecule agonists, cell-based qHTS assay (AID 1963593);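 note: CHO cells stably overexpressing human ADRB2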
Conditions: CHO-ADRB2 cells, cAMP HTRF, 30 min; at 92.4 µM (top of the series)
Method in brief: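 CHO cells stably over-expressing ADRB2 were plated overnight at 37C, then dosed with compounds plus a stimulation mix containing 100uM IBMX and 25uM Ro-20-1724 for 0.5hr at room temperature. cAMP was measured by HTRF competition, 1hr.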
% is set by controls: 0 for no effect and ±100 for the full control effect.

O=[N+]([O-])c1cc(C(F)(F)F)ccc1Cl was tested. Which activation did it give?
The activation was inactive: -2.47%.

For COCC(=O)O, which activation is on record?
Its activation is inactive: -8.65%.

Which activation does the source give for COCCOCCOC here?
Its activation is inactive: 11%.

Biological target: D(2) dopamine receptor (Homo sapiens) (UniProt P14416)
Test: Dopamine D2 receptor (DRD2) small molecule antagonists, cell-based qHTS assay (AID 1963595; active = well fitted inhibition curve with a large enough effect in the signal ratio in the repeat runs, with a control signal flat; inconclusive = weak or mixed curves, or effect the other way; the % refers to the signal ratio; note: potency is the fitted concentration of half-maximal effect)
Conditions: HEK293-DRD2 cAMP HTRF antagonist mode; activity change, negative = inhibition: at 92.4 µM (top of the series) unless noted
Method in brief: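 Readout: HTRF cAMP, cAMP-d2 competing with cellular cAMP for anti-cAMP cryptate, read after 1 h. Cells: DRD2-HEK293. Conditions: 0.1 mM Ro20-1724, 12 nM quinpirole, 200 nM NKH477, 30 min RT.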

How did the activity change, negative = inhibition turn out when CCCCOCCOCCSC#N was run?
The activity change, negative = inhibition was inconclusive: -26.2% [at 42.5 µM].

For CN(C(=O)CCCOc1ccc2[nH]c(=O)ccc2c1)C1CCCCC1, which Potency is on record?
Its Potency is inconclusive: 2.37 µM [inhibitor, full curve, poor fit].

Which “activity change, negative = inhibition” value does the source give for CCOc1ccc(O)cc1 here?
The value was inactive: 4.75%.
